Measurements published in patent US20170290925A1 (priority 2014, published 2017).

Experiment: general procedure: solution-phase peptide synthesis; HATU/NMM
Settings: conjugation step

## bis-tolylsulfonyl-propanoyl-benzamide-Glu-[NH-PEG(24u)-OMe]-[val-cit-PAB-MMAE]
  conjugation yield: 56%
